Protein sequences, listed by entry. Tags and fused reporters are not part of them. Lines headed by an entry give the natural chain unless they say otherwise; changes in a name come on top.
UniProt C7C422: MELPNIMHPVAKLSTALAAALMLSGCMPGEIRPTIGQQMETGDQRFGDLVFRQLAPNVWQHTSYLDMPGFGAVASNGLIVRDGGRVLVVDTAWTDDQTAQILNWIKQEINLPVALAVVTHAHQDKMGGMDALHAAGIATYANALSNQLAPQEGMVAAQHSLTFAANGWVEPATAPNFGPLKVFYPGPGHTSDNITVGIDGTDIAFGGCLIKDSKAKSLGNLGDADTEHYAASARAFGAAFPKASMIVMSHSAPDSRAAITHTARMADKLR

Screen size: about 2,800 compounds; fewer than 10 were called active. Another 7% or so got no clear call; they are omitted. Calls come from the whole dose curve; as a rule, active = well fitted inhibition curve with a large enough effect; inconclusive = small, poorly fitted or top-dose-only effect; inactive = no such curve, though single readings can be large or run the other way. The list shows a part of the results.
Each molecule was assayed against Metallo-beta-lactamase type 2 (Klebsiella pneumoniae) (UniProt C7C422) (assay: qHTS to identify inhibitors of the New Delhi Metallo-beta-lactamase (NDM): Nitrocefin screen against the machine-based learning selections.). Details: NDM-1 enzyme, nitrocefin hydrolysis, absorbance 485 nm; activity, negative = inhibition: at the top concentration.
In short: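 NDM-1 (2 nM final) in 50 mM HEPES pH 7.0, 1 uM Zn2SO4, 0.01% Tween20 was preincubated with compounds for >30 min. Nitrocefin (16.7 uM final) was read at 485 nm after 15 min, and meropenem (50 uM final) at 300 nm after 30 min.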
CCCOc1ccccc1C(=O)N1CC[C@H](N(C)C)[C@H](CCC(=O)O)C1 was tested, and the “activity, negative = inhibition” value was inactive: -5%.
With NC(=O)CO[C@@H]1CO[C@H]2[C@@H]1OC[C@@H]2NC(=O)NCc1ccccc1 the “activity, negative = inhibition” value was inactive: -7.38% [at 57.5 µM].
With O=C1NCCCCCN(C(=O)NC2CCCCC2)[C@H]2CCCC[C@@H]12 the “activity, negative = inhibition” value was inactive: 3.79%.
O=C1N(CC2CCC2)CCCC12CCN(Cc1ccc(-c3ccn[nH]3)s1)C2 (centres undefined) was tested, and the “activity, negative = inhibition” value was inactive: 13.5%.
In the case of c1ccc(Nc2cc3c(cn2)CN(Cc2ccc4[nH]ccc4c2)CCN3)cc1, the “activity, negative = inhibition” value is reported as inactive: 21.3% [at 57.5 µM].
With Cc1ccccc1N(C)C1CN(Cc2ccccc2)C1 the “activity, negative = inhibition” value was inactive: -0.333% [at 57.5 µM].
For COCCN1CCC(CN(Cc2ccncc2)C(=O)c2cnco2)CC1, the “activity, negative = inhibition” value was inactive: -4.07%.
In the case of CC(C)(CO)CNC(=O)c1cnc2c(c1)N([S+](=O)([O-])c1cccnc1)CCC2, the “activity, negative = inhibition” value is reported as inactive: 1.34% [at 57.5 µM].
O=C(Nc1cccnc1)c1ccnc(-c2nnc3ccc(Nc4ccccc4)nn23)c1 was tested, and the “activity, negative = inhibition” value was inactive: 3.33% [at 57.5 µM].
Cc1nc2ccc(C(=O)N3C[C@@H](CN4CCCCC4)[C@@H](CO)C3)cc2s1 was tested, and the “activity, negative = inhibition” value was inactive: -12.9%.
For O=C(Nc1ccccc1)O[C@@H]1CO[C@H]2[C@@H]1OC[C@@H]2NCc1ccccc1, the “activity, negative = inhibition” value was inactive: -1.59% [at 57.5 µM].
With COCCC(=O)N1CC[C@H](c2nc3ccccc3o2)C1 the “activity, negative = inhibition” value was inactive: -7.27% [at 76.7 µM].
With CCn1cc(S(=O)(=O)N2CCC3(CC2)CN(Cc2ccc(OC)cc2)C3=O)cn1 the “activity, negative = inhibition” value was inactive: -3.15%.
Cc1[nH]cnc1CN1CCNc2cc(Nc3ccccc3)ncc2C1 was tested, and the “activity, negative = inhibition” value was inactive: 2.62% [at 57.5 µM].
c1cncc(-c2nc3c(c(NCc4ccccc4-n4ccnc4)n2)CNC3)c1 was tested, and the “activity, negative = inhibition” value was inactive: 4.93%.
In the case of CN(C)CCNC(=O)Cc1c[nH]c2ncc(-c3ccccc3)cc12, the “activity, negative = inhibition” value is reported as inactive: 2.38% [at 57.5 µM].
In the case of CC1(CCCCc2ccccc2)COc2ccc(C(=O)NCc3cnccn3)cc2N1 (centres undefined), the “activity, negative = inhibition” value is reported as inactive: 1.6% [at 57.5 µM].
With Cc1ccc(CN2CCC(Oc3ccc4ncccc4c3)(C(=O)O)CC2)o1 the “activity, negative = inhibition” value was inactive: -4.72%.
For O=C1CCN(S(=O)(=O)c2ccccc2)CCCN(C2CCCCCC2)CCN1, the “activity, negative = inhibition” value was inactive: 3.1%.
O=C(N[C@H]1C[C@H]2C(=O)NC[C@@H](CCC(=O)N3CCCCC3)N2C1)c1ccco1 was tested, and the “activity, negative = inhibition” value was inactive: -3.2% [at 57.5 µM].
In the case of CC(C)NC(=O)NCC1(COc2ccccc2)C[C@@H](O)[C@@H](O)C1 (some centres undefined), the “activity, negative = inhibition” value is reported as inactive: 2.06% [at 57.5 µM].
With O=C(Cc1ccccc1)N1CCNc2cnc(Nc3ccccc3)nc2C1 the “activity, negative = inhibition” value was inactive: 6.3% [at 57.5 µM].
In the case of CC(C)CS(=O)(=O)Nc1ccc([C@H]2OCC(=O)N(Cc3ccc(F)cc3)[C@@H]2CO)cc1, the “activity, negative = inhibition” value is reported as inactive: 2.38%.
In the case of CCn1ncc(N2CCC(NC(=O)c3ccccc3OC)CC2)cc1=O, the “activity, negative = inhibition” value is reported as inactive: -6.04%.
With CCNC(=O)c1ccccc1-c1ccc(O)cc1 the “activity, negative = inhibition” value was inactive: -2.89%.
For Cc1cccc(CN2CCNc3cc(Nc4cccnc4)ncc3C2)c1, the “activity, negative = inhibition” value was inactive: 2.81% [at 57.5 µM].
In the case of O=C(CCc1nc2ccccc2s1)N[C@H](c1ccccn1)C1CC(O)C1 (some centres undefined), the “activity, negative = inhibition” value is reported as inactive: 1.88%.
In the case of Cc1nc(C(=O)NC2CC(c3cc(N4CCC(O)C4)ncn3)C2)cs1 (centres undefined), the “activity, negative = inhibition” value is reported as inactive: -0.719%.
For CC(C)c1noc([C@@H]2C[C@H](NC(=O)Nc3ccc(F)cc3)CN2C)n1, the “activity, negative = inhibition” value was inactive: -0.362% [at 57.5 µM].
In the case of Cc1noc(C)c1S(=O)(=O)N1CC(c2noc(C3CCCN3C)n2)C1 (centres undefined), the “activity, negative = inhibition” value is reported as inactive: 0.117%.
For O=C(Nc1ccc([C@H]2OCC(=O)N(C3CCOCC3)[C@@H]2CO)cc1)c1cnccn1, the “activity, negative = inhibition” value was inactive: 317% [at 57.5 µM].
For C[C@]1(CO)[C@H]2Cc3sc(NC(=O)c4ccnc(Cl)c4)nc3[C@@H](CC(=O)NCc3ccco3)[C@]2(C)CC[C@H]1O, the “activity, negative = inhibition” value was inactive: 0.333%.
In the case of O=C(Cc1c[nH]c2ncc(-c3ccccc3)cc12)NCc1cnccn1, the “activity, negative = inhibition” value is reported as inactive: 7.61% [at 57.5 µM].
With N[C@H]1CN(C(=O)c2sccc2Cl)C[C@@H]1C1CC1 the “activity, negative = inhibition” value was inactive: -7%.
In the case of CN1CCC(N2C[C@@H]3C[C@H]2C(=O)N(CC2CC2)c2ccccc2O3)CC1, the “activity, negative = inhibition” value is reported as inactive: -6.63% [at 57.5 µM].
In the case of Fc1ccc(CNc2cc3c(cn2)CN(Cc2ccncc2)CCN3)cc1, the “activity, negative = inhibition” value is reported as inactive: 2.96% [at 57.5 µM].
For Cc1ccccc1NC(=O)c1cnc2c(c1)N(Cc1ccccc1)CCC2, the “activity, negative = inhibition” value was inactive: -2.43% [at 57.5 µM].
For O=C1Nc2ccc(-c3ccccc3F)cc2C(=O)N2C[C@@H](NS(=O)(=O)c3ccc(F)cc3)C[C@@H]12, the “activity, negative = inhibition” value was inactive: 1.17%.
With Cc1ccc(C(=O)NC2CCCN(c3cc(N(C)C)ncn3)C2)s1 (centres undefined) the “activity, negative = inhibition” value was inactive: -0.497%.
For O=C1CCCN1CCCN1C(=O)[C@@H]2C[C@@H](O)CN2C2(CN(C3CCC(F)(F)CC3)C2)C1=O, the “activity, negative = inhibition” value was inactive: -8.03%.
In the case of C#CCNC(=O)CC[C@H]1CNC(=O)[C@@H]2[C@@H](CCN2Cc2ccc(C(F)(F)F)cc2)N1C, the “activity, negative = inhibition” value is reported as inactive: -6.67%.
In the case of COCC(=O)N[C@H]1CC[C@]2(C)CC[C@@H](C(C)C(=O)NC3CC3)[C@H](O)[C@H]2[C@@H]1C (some centres undefined), the “activity, negative = inhibition” value is reported as inactive: 3.33% [at 57.5 µM].
With COc1ccc(F)c(-c2nc(CN(C)C(C)c3cccs3)c(C)o2)c1 (centres undefined) the “activity, negative = inhibition” value was inactive: -1%.
With Cc1cccc(CC(=O)N2CCC(n3cc(-c4nc(-c5ccccc5)no4)nn3)CC2)c1 the “activity, negative = inhibition” value was inactive: 0.0288%.
In the case of Fc1ccc(-c2nnc3ccc(NCCc4ccccn4)nn23)nc1, the “activity, negative = inhibition” value is reported as inactive: -22.1% [at 57.5 µM].
CCCc1ccc2oc(C(=O)N(CC)Cc3ccncc3)c(C)c2c1 was tested, and the “activity, negative = inhibition” value was inactive: 216%.
CN(C)Cc1cc(-c2nccn2CC2(CO)CCCC2)ccc1O was tested, and the “activity, negative = inhibition” value was inactive: 2.34%.
In the case of COc1ccc(Nc2cc3c(cn2)CN(CCc2ccccc2)CCN3)cn1, the “activity, negative = inhibition” value is reported as inactive: 8.87% [at 57.5 µM].
In the case of O=C(O)CCn1ncc2cc(OCc3ccc(-c4cncnc4)cc3)ccc21, the “activity, negative = inhibition” value is reported as inactive: 29.2% [at 57.5 µM].

Reference: PubChem BioAssay AID1794844 (National Center for Advancing Translational Sciences (NCATS), 2023)
Note: % of control where 0% means no effect.
